Results as given in publication PMC11845712.
These are yes or no findings as the source states them, for the method shown. In cells and extracts the contact can be indirect. Some results given as binding are weak or reduced against the parent protein; the word gives no strength.

The chains behind the UniProt entries cited, without tags or fusion partners.
UniProt Q9Y572: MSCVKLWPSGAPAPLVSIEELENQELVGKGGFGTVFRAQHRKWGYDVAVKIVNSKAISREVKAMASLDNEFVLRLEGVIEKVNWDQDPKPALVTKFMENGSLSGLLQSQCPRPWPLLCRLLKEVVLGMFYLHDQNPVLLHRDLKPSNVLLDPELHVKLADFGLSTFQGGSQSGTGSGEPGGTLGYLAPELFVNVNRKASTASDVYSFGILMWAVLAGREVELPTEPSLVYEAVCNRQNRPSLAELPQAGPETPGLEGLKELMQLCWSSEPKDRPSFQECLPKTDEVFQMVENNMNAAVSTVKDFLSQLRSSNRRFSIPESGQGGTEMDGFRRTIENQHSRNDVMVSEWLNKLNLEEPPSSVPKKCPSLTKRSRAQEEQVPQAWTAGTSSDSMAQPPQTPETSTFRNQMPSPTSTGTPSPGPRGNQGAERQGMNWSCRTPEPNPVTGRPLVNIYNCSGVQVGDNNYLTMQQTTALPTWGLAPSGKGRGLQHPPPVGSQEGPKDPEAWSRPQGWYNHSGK
UniProt Q13158: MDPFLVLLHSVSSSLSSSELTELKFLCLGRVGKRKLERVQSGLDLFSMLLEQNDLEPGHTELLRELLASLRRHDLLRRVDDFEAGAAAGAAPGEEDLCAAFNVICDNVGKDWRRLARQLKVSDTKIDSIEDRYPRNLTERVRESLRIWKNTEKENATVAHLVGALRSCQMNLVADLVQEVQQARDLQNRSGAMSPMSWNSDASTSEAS
UniProt Q13546: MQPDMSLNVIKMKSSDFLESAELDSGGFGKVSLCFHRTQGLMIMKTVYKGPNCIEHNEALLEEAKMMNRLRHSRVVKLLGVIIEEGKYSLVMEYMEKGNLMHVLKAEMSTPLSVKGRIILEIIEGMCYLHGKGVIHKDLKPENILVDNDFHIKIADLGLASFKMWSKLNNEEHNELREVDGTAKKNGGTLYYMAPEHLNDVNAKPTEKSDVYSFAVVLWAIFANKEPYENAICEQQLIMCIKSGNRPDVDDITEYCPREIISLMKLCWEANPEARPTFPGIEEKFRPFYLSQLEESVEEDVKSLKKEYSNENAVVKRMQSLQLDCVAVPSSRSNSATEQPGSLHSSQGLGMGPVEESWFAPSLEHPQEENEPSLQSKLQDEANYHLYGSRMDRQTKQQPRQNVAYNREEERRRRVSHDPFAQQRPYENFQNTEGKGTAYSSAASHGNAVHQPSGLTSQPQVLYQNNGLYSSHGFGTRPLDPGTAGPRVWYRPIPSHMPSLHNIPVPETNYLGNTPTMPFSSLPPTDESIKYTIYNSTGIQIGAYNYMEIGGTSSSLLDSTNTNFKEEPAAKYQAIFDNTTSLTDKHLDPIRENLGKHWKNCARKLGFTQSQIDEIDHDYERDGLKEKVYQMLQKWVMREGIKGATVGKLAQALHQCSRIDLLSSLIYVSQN

Tests used:
[1] = target: RIPK3 (human (endogenous in HUVEC)) (UniProt Q9Y572); assay: co-IP; endogenous proteins of HUVEC, normoxia or hypoxia (1% O2, 12 h); RIPA lysate; antibody (anti-RIPK3, anti-FADD or anti-SUMO2/3) on protein A+G magnetic beads, lysate overnight at 4 °C, three washes with PBST, immunoblot; anti-RIPK3 IP also from cells transfected with FADD-OE WT or MUT plasmids (Fig. 5B)
[2] = target: FADD (Fas-associated via death domain) (human (endogenous in HUVEC)) (UniProt Q13158); assay: as above
[3] = target: wild-type FADD (FADD-OE WT) (UniProt Q13158); assay: co-IP; HUVEC transfected with FADD-OE (WT) or FADD-OE (MUT) plasmid, normoxia or hypoxia (12 h); RIPA lysate; anti-FADD antibody on protein A+G magnetic beads, immunoblot with anti-RIPK1 and anti-RIPK3

| binding [1] | binding [3] | Substance | binding [2] |
| --- | --- | --- | --- |
| binds | – | RIPK1 (from UniProt Q13546 1-671) | – |
| – | binds | RIPK3 (from UniProt Q9Y572 1-518) | binds |
